Results are given in words; binding and its absence hold for the method and conditions named. Binding seen in cells or lysates may run through a third protein. These calls come from enrichment with a bait or labelling near it, and not all partners need be listed.
Target: CP43 with C-terminal twin-strep-tag (PsbC-TS) (T. elongatus) (UniProt Q8DIF8)
Assay: affinity purification with mass spectrometry

B1: Psb34 (tsl0063) (protein, UniProt Q8DMP8 1-56)
chain: MRYTTDEGGRLNNFAIEPKVYQAQPWTPQQKVRAALLVGGGLLLVAGLVAIAVGVS
binding: binds

Source: article doi:10.1101/2020.09.14.294884 (bioRxiv, 2020)
